The other results are listed elsewhere or left out. Single values are uncertain, as repeats are few or missing.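 Cells were imaged in 1,536-well plates, and nuclei stained with an antibody against cleaved PARP were counted against all DNA-stained nuclei to give the apoptosis fraction. Screening doses were chosen to leave most cells alive, and resting and induced cleaved-PARP levels differ strongly between cell lines.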
Tests used:
Assay in all cases: cleaved PARP positive nuclei fraction relative to DMSO control; melanoma cells; higher = more apoptosis
Settings in all cases: library dose: low library concentration; 72 h
[1] = tested on: MZ2-MEL
[2] = tested on: MeWo
[3] = tested on: RPMI7951
[4] = tested on: RVH-421
[5] = tested on: SkMel28
[6] = tested on: SkMel30
[7] = tested on: SkMel5
[8] = tested on: UACC257
[9] = tested on: UACC62
[10] = tested on: WM115
[11] = tested on: WM1716
[12] = tested on: WM1745
[13] = tested on: WM3526
[14] = tested on: WM3619
[15] = tested on: WM451Lu

SMILES | cleaved PARP positive nuclei fraction [1] [%] | cleaved PARP positive nuclei fraction [2] [%] | cleaved PARP positive nuclei fraction [3] [%] | cleaved PARP positive nuclei fraction [4] [%] | cleaved PARP positive nuclei fraction [5] [%] | cleaved PARP positive nuclei fraction [6] [%] | cleaved PARP positive nuclei fraction [7] [%] | cleaved PARP positive nuclei fraction [8] [%] | cleaved PARP positive nuclei fraction [9] [%] | cleaved PARP positive nuclei fraction [10] [%] | cleaved PARP positive nuclei fraction [11] [%] | cleaved PARP positive nuclei fraction [12] [%] | cleaved PARP positive nuclei fraction [13] [%] | cleaved PARP positive nuclei fraction [14] [%] | cleaved PARP positive nuclei fraction [15] [%]
CO[C@H]1C[C@@H]2CC[C@@H](C)[C@@](O)(O2)C(=O)C(=O)N2CCCC[C@H]2C(=O)O[C@H]([C@H](C)C[C@@H]2CC[C@@H](OCCO)[C@H](OC)C2)CC(=O)[C@H](C)/C=C(\C)[C@@H](O)[C@@H](OC)C(=O)[C@H](C)C[C@H](C)/C=C/C=C/C=C/1C [everolimus] + O=C(CCCCCCC(=O)Nc1ccccc1)NO [vorinostat] (first compound 0.02 µM, partner dose 0.08 µM) | 276 | 140 | 147 | 102 | 530 | 47.7 | 224 | 211 | 99.2 | 163 | 80.8 | 84 | 77.9 | 107 | 143
CO[C@H]1C[C@@H]2CC[C@@H](C)[C@@](O)(O2)C(=O)C(=O)N2CCCC[C@H]2C(=O)O[C@H]([C@H](C)C[C@@H]2CC[C@@H](OCCO)[C@H](OC)C2)CC(=O)[C@H](C)/C=C(\C)[C@@H](O)[C@@H](OC)C(=O)[C@H](C)C[C@H](C)/C=C/C=C/C=C/1C [everolimus] + O=c1cc(-c2cccc3c2Sc2ccccc2S3)oc(N2CCOCC2)c1 [KU55933] (first compound 0.02 µM, partner dose 1 µM) | 339 | 57.4 | 109 | 146 | 280 | 140 | 110 | 135 | 282 | 126 | 69.3 | 98.2 | 48.9 | 109 | 414
CO[C@H]1C[C@@H]2CC[C@@H](C)[C@@](O)(O2)C(=O)C(=O)N2CCCC[C@H]2C(=O)O[C@H]([C@H](C)C[C@@H]2CC[C@@H](OCCO)[C@H](OC)C2)CC(=O)[C@H](C)/C=C(\C)[C@@H](O)[C@@H](OC)C(=O)[C@H](C)C[C@H](C)/C=C/C=C/C=C/1C [everolimus] + COc1ccc(COc2ccc(Cc3cnc(N)nc3N)cc2OC)cc1 [GW2580] (first compound 0.02 µM, partner dose 1 µM) | 66 | 32.3 | 55.1 | 31.2 | 247 | 78.5 | 64.3 | 150 | 251 | 97.1 | 330 | 110 | 119 | 16.8 | 76.6
CO[C@H]1C[C@@H]2CC[C@@H](C)[C@@](O)(O2)C(=O)C(=O)N2CCCC[C@H]2C(=O)O[C@H]([C@H](C)C[C@@H]2CC[C@@H](OCCO)[C@H](OC)C2)CC(=O)[C@H](C)/C=C(\C)[C@@H](O)[C@@H](OC)C(=O)[C@H](C)C[C@H](C)/C=C/C=C/C=C/1C [everolimus] + Cn1cncc1[C@@](N)(c1ccc(Cl)cc1)c1ccc2c(c1)c(-c1cccc(Cl)c1)cc(=O)n2C [tipifarnib] (first compound 0.02 µM, partner dose 0.01 µM) | 131 | 49.1 | 123 | 131 | 367 | 106 | 80.2 | 470 | 619 | 223 | 91 | 104 | 151 | 134 | 426
CO[C@H]1C[C@@H]2CC[C@@H](C)[C@@](O)(O2)C(=O)C(=O)N2CCCC[C@H]2C(=O)O[C@H]([C@H](C)C[C@@H]2CC[C@@H](OCCO)[C@H](OC)C2)CC(=O)[C@H](C)/C=C(\C)[C@@H](O)[C@@H](OC)C(=O)[C@H](C)C[C@H](C)/C=C/C=C/C=C/1C [everolimus] + O=C(O)C(=O)Nc1sc2c(c1C(=O)O)CCNC2 [TCS401] (first compound 0.02 µM, partner dose 1.66667 µM) | 205 | 60.8 | 129 | 70 | 298 | 103 | 78.5 | 225 | 502 | 248 | 81.8 | 111 | 113 | 164 | 66.4
O=C(O)[C@@H]1[O][Sb](=[O])([O][Sb]2(=[O])[O][C@H]([C@H](O)CO)[C@H](O)[C@H](C(=O)O)[O]2)[O][C@H]([C@H](O)CO)[C@@H]1O (some centres undefined) [stibogluconate] + CO[C@H]1C[C@@H]2CC[C@@H](C)[C@@](O)(O2)C(=O)C(=O)N2CCCC[C@H]2C(=O)O[C@H]([C@H](C)C[C@@H]2CC[C@@H](OCCO)[C@H](OC)C2)CC(=O)[C@H](C)/C=C(\C)[C@@H](O)[C@@H](OC)C(=O)[C@H](C)C[C@H](C)/C=C/C=C/C=C/1C [everolimus] (first compound 2 µM, partner dose 0.02 µM) | 97.9 | 56.5 | 37.4 | 155 | 170 | 41.7 |  |  | 144 | 140 | 44.2 | 96.4 | 76.7 | 95.4 | 223
CO[C@H]1C[C@@H]2CC[C@@H](C)[C@@](O)(O2)C(=O)C(=O)N2CCCC[C@H]2C(=O)O[C@H]([C@H](C)C[C@@H]2CC[C@@H](OCCO)[C@H](OC)C2)CC(=O)[C@H](C)/C=C(\C)[C@@H](O)[C@@H](OC)C(=O)[C@H](C)C[C@H](C)/C=C/C=C/C=C/1C [everolimus] + Oc1nc(-c2ccc(C(F)(F)F)cc2)nc2c1CSCC2 [XAV939] (first compound 0.02 µM, partner dose 2 µM) | 123 | 241 | 116 | 127 | 549 | 28.9 | 101 | 431 | 304 | 205 | 615 | 94.9 | 110 | 149 | 63.3
CO[C@H]1C[C@@H]2CC[C@@H](C)[C@@](O)(O2)C(=O)C(=O)N2CCCC[C@H]2C(=O)O[C@H]([C@H](C)C[C@@H]2CC[C@@H](OCCO)[C@H](OC)C2)CC(=O)[C@H](C)/C=C(\C)[C@@H](O)[C@@H](OC)C(=O)[C@H](C)C[C@H](C)/C=C/C=C/C=C/1C [everolimus] + COc1cc2c(Oc3ccc4[nH]c(C)cc4c3F)ncnc2cc1OCCCN1CCCC1 [cediranib] (first compound 0.02 µM, partner dose 0.4 µM) | 117 | 88.8 | 285 | 220 | 149 | 396 | 169 | 178 | 218 | 121 | 98 | 107 | 174 | 136 | 431
CO[C@H]1C[C@@H]2CC[C@@H](C)[C@@](O)(O2)C(=O)C(=O)N2CCCC[C@H]2C(=O)O[C@H]([C@H](C)C[C@@H]2CC[C@@H](OCCO)[C@H](OC)C2)CC(=O)[C@H](C)/C=C(\C)[C@@H](O)[C@@H](OC)C(=O)[C@H](C)C[C@H](C)/C=C/C=C/C=C/1C [everolimus] + CN(NC(=O)CC(=O)NN(C)C(=S)c1ccccc1)C(=S)c1ccccc1 [STA4783] (first compound 0.02 µM, partner dose 0.006 µM) | 187 | 72.7 | 104 | 103 | 287 | 171 | 75 | 169 | 246 | 821 | 350 | 371 | 1990 | 168 | 158
CO[C@H]1C[C@@H]2CC[C@@H](C)[C@@](O)(O2)C(=O)C(=O)N2CCCC[C@H]2C(=O)O[C@H]([C@H](C)C[C@@H]2CC[C@@H](OCCO)[C@H](OC)C2)CC(=O)[C@H](C)/C=C(\C)[C@@H](O)[C@@H](OC)C(=O)[C@H](C)C[C@H](C)/C=C/C=C/C=C/1C [everolimus] + COc1cc(N2CCC(N3CCN(C)CC3)CC2)ccc1Nc1ncc(Cl)c(Nc2ccccc2S(=O)(=O)C(C)C)n1 [NVP-TAE684] (first compound 0.02 µM, partner dose 0.08 µM) | 93.4 | 105 | 207 | 159 | 309 | 390 | 92.4 | 170 | 216 | 138 | 89.2 | 119 | 128 | 193 | 113
CO[C@H]1C[C@@H]2CC[C@@H](C)[C@@](O)(O2)C(=O)C(=O)N2CCCC[C@H]2C(=O)O[C@H]([C@H](C)C[C@@H]2CC[C@@H](OCCO)[C@H](OC)C2)CC(=O)[C@H](C)/C=C(\C)[C@@H](O)[C@@H](OC)C(=O)[C@H](C)C[C@H](C)/C=C/C=C/C=C/1C [everolimus] + O=C(Nc1cccc(Cl)c1)Nc1ncc(CCNc2ncnc3ccsc23)s1 [SNS314] (first compound 0.02 µM, partner dose 0.0008 µM) | 75.3 | 37.9 | 87.5 | 231 | 228 | 34.8 | 31.9 | 468 | 80.3 | 83.1 | 127 | 110 | 203 | 153 | 157
CO[C@H]1C[C@@H]2CC[C@@H](C)[C@@](O)(O2)C(=O)C(=O)N2CCCC[C@H]2C(=O)O[C@H]([C@H](C)C[C@@H]2CC[C@@H](OCCO)[C@H](OC)C2)CC(=O)[C@H](C)/C=C(\C)[C@@H](O)[C@@H](OC)C(=O)[C@H](C)C[C@H](C)/C=C/C=C/C=C/1C [everolimus] + O=C(O)c1ccc2c(c1)nc(Nc1cccc(Cl)c1)c1ccncc12 [CX4945] (first compound 0.02 µM, partner dose 0.4 µM) | 106 | 172 | 70.2 | 88.6 | 162 | 118 |  |  | 557 | 121 | 108 | 95.1 | 125 | 119 | 120
CO[C@H]1C[C@@H]2CC[C@@H](C)[C@@](O)(O2)C(=O)C(=O)N2CCCC[C@H]2C(=O)O[C@H]([C@H](C)C[C@@H]2CC[C@@H](OCCO)[C@H](OC)C2)CC(=O)[C@H](C)/C=C(\C)[C@@H](O)[C@@H](OC)C(=O)[C@H](C)C[C@H](C)/C=C/C=C/C=C/1C [everolimus] + Cn1c(Nc2ccc(C(F)(F)F)cc2)nc2cc(Oc3ccnc(-c4ncc(C(F)(F)F)[nH]4)c3)ccc21 [CHIR265] (first compound 0.02 µM, partner dose 0.08 µM) | 248 | 143 | 131 | 141 | 105 | 48.3 |  |  | 707 | 786 | 231 | 130 | 89 | 120 | 286

Random excerpt: two entries already listed, in no set order.
SMILES | cleaved PARP positive nuclei fraction [1] [%] | cleaved PARP positive nuclei fraction [2] [%] | cleaved PARP positive nuclei fraction [3] [%] | cleaved PARP positive nuclei fraction [4] [%] | cleaved PARP positive nuclei fraction [5] [%] | cleaved PARP positive nuclei fraction [6] [%] | cleaved PARP positive nuclei fraction [7] [%] | cleaved PARP positive nuclei fraction [8] [%] | cleaved PARP positive nuclei fraction [9] [%] | cleaved PARP positive nuclei fraction [10] [%] | cleaved PARP positive nuclei fraction [11] [%] | cleaved PARP positive nuclei fraction [12] [%] | cleaved PARP positive nuclei fraction [13] [%] | cleaved PARP positive nuclei fraction [14] [%] | cleaved PARP positive nuclei fraction [15] [%]
CO[C@H]1C[C@@H]2CC[C@@H](C)[C@@](O)(O2)C(=O)C(=O)N2CCCC[C@H]2C(=O)O[C@H]([C@H](C)C[C@@H]2CC[C@@H](OCCO)[C@H](OC)C2)CC(=O)[C@H](C)/C=C(\C)[C@@H](O)[C@@H](OC)C(=O)[C@H](C)C[C@H](C)/C=C/C=C/C=C/1C [everolimus] + O=C(CCCCCCC(=O)Nc1ccccc1)NO [vorinostat] (first compound 0.02 µM, partner dose 0.08 µM) | 276 | 140 | 147 | 102 | 530 | 47.7 | 224 | 211 | 99.2 | 163 | 80.8 | 84 | 77.9 | 107 | 143
CO[C@H]1C[C@@H]2CC[C@@H](C)[C@@](O)(O2)C(=O)C(=O)N2CCCC[C@H]2C(=O)O[C@H]([C@H](C)C[C@@H]2CC[C@@H](OCCO)[C@H](OC)C2)CC(=O)[C@H](C)/C=C(\C)[C@@H](O)[C@@H](OC)C(=O)[C@H](C)C[C@H](C)/C=C/C=C/C=C/1C [everolimus] + O=c1cc(-c2cccc3c2Sc2ccccc2S3)oc(N2CCOCC2)c1 [KU55933] (first compound 0.02 µM, partner dose 1 µM) | 339 | 57.4 | 109 | 146 | 280 | 140 | 110 | 135 | 282 | 126 | 69.3 | 98.2 | 48.9 | 109 | 414

Source: the supplement of paper PMC4604168 (melanoma cell lines)
